“And” between values parts separate entries of the source, which are not always exact repeats. Identical values can stand only once. * marks the point of attachment. Trt = c1ccc(C(c2ccccc2)(c2ccccc2)*)cc1; Fmoc = O=C(OCC1c2ccccc2-c2ccccc21)*; OtBu = CC(C)(C)O*; For = O=C*
Experiment: general procedure: solution-phase peptide synthesis; EDC.HCl, HOBt hydrate, DIPEA

**Q.** For Fmoc-MD(OtBu)GC(Trt)E(OtBu)L-OtBu, which “final purity (method not given)” value (coupling step) is on record?
**A.** 95.4% and 94.1%

**Q.** What about the step yield (coupling step) of the same substance?
**A.** 78% and 83%

**Q.** For For-MDGCEL-OH, which “final purity (method not given)” value (late stage modification step) is on record?
**A.** 98.3%

**Q.** What does the source list for Fmoc-D(OtBu)GC(Trt)E(OtBu)L-OtBu?
**A.** step yield (coupling step): about 25%; step yield (coupling step, of theory): 58.1% and 75.4%

**Q.** Which difficulty met (coupling step) does the source give for For-MD(OtBu)GC(Trt)E(OtBu)L-OtBu here?
**A.** found to lead to partial epimerization in the final product

**Q.** And the “purity (crude or final not stated)” value (late stage modification step)?
**A.** 67.5-77.2% and 88.8%

**Q.** What about the step yield (late stage modification step) of the same substance?
**A.** 75-83% and 67%

Reference: patent US12129277 (dated 2024)
